From patent US20200282021A1
Results are given in words; binding and its absence hold for the method and conditions named. Some entries that bind do so weakly or less than the wild type.

Chains of the proteins cited; added tags and fusions are not shown. Residues count along the entry.
UniProt P43220, residues 24-145: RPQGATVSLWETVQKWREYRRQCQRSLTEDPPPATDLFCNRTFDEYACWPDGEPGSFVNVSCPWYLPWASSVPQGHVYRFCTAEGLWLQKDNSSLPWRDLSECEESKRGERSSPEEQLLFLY

What was measured:
[1] = biological target: human GLP-1 receptor (Abcam) (human) (UniProt P43220); assay: BLI, legend of FIG. 1(H)
[2] = biological target: human GLP-1 receptor (Abcam) (human) (UniProt P43220); assay: SPR, legend of FIG. 1(B)-1(G)
[3] = biological target: human GLP-1 receptor (Abcam) (human) (UniProt P43220); assay: SPR, human GLP-1 receptor immobilised

Measured: binding

B1: GLP-1(A2G)-hyFc9 (Fc fusion)
chain: HGEGTFTSDVSSYLEGQAAKEFIAWLVKGRGAKATTAPATTRNTGRGGEEKKKEKEKEEQEERETKTPECPSHTQPLGVFLFPPKPKDTLMISRTPEVTCVVVDVSQEDPEVQFNWYVDGVEVHNAKTKPREEQFNSTYRVVSVLTVLHQDWLNGKEYKCKVSNKGLPSSIEKTISKAKGQPREPQVYTLPPSQEEMTKNQVSLTCLVKGFYPSDIAVEWESNGQPENNYKTTPPVLDSDGSFFLYSRLTVDKSRWQEGNVFSCSVMHEALHNHYTQKSLSLSLGK
modifications: O-glycosylation at the IgD hinge region (positions not stated)
binds: all assays above
